Drawing on paper PMC4381216, this text covers binding for two substances.

Amino acid sequences for entries named in this document (tags omitted).
UniProt Q9NZL3: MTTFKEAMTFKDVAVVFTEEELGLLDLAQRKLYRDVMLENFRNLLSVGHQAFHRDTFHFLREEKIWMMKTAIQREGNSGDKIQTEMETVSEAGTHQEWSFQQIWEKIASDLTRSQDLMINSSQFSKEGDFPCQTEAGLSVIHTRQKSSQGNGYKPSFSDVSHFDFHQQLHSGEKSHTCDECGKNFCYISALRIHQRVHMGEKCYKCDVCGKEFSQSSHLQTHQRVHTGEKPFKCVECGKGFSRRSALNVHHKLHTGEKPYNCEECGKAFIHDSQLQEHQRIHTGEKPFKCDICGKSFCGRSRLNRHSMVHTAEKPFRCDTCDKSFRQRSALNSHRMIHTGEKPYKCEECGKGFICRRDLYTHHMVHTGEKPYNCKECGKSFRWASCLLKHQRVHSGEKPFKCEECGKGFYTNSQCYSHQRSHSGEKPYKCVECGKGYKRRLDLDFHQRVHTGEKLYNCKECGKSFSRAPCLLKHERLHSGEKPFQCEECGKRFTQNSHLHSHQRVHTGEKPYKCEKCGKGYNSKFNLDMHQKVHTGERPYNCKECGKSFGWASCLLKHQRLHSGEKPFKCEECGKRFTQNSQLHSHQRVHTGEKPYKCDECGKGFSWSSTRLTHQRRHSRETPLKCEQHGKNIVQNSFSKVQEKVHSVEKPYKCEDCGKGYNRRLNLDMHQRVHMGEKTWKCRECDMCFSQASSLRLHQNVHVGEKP
UniProt Q13263: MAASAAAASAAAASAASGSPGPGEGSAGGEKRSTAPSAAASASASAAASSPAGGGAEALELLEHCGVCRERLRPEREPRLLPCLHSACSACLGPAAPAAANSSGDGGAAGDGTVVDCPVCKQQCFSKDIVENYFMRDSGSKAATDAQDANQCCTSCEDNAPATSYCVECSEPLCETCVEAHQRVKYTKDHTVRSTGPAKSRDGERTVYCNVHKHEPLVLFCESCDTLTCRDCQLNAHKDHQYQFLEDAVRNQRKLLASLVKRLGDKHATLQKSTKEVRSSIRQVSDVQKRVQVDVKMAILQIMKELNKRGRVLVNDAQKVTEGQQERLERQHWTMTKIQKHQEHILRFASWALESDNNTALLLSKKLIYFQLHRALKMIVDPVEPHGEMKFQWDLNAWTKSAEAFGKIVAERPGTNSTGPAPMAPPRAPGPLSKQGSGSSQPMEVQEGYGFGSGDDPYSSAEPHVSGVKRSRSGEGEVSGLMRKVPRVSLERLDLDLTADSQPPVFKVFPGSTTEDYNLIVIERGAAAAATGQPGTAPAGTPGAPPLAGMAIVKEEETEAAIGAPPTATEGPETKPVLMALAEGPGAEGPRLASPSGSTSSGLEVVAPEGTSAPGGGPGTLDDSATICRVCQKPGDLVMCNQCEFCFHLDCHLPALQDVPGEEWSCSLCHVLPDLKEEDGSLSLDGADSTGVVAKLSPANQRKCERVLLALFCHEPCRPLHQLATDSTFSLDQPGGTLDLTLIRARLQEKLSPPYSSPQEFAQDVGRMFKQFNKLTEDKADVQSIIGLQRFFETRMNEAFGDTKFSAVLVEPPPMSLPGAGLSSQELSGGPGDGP
UniProt O14744: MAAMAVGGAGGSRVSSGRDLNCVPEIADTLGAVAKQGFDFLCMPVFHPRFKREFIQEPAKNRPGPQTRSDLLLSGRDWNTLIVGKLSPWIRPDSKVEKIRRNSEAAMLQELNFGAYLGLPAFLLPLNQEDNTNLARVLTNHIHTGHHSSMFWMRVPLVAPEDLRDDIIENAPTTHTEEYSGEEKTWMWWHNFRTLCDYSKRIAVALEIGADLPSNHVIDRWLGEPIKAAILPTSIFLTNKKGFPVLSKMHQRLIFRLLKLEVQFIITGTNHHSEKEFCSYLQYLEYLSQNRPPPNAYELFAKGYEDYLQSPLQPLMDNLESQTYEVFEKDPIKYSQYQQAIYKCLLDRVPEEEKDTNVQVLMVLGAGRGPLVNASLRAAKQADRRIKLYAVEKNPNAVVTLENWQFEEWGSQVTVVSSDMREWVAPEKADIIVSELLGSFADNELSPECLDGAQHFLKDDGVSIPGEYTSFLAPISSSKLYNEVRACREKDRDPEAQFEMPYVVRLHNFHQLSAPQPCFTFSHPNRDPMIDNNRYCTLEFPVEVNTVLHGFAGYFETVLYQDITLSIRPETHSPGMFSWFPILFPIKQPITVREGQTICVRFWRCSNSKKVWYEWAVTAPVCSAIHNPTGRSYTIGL

One assay addresses 3xFlag-ZNF224 (UniProt Q9NZL3). As to the kind of experiment: co-IP; HEK293 cells transfected with 3xFlag-ZNF224, with or without 2 mM AdOx for 24 h; 1 mg protein extract, anti-Flag M2 antibody or control IgG overnight at 4 °C, Protein A/G PLUS Agarose; Western blot with anti-KAP1.
Assay [1] addresses 3xFlag-KAP1 (KRAB-associated protein 1) (UniProt Q13263). As to the kind of experiment: co-IP; HEK293 cells transfected with 3xFlag-KAP1; 1 mg protein extract, anti-Flag M2 antibody or control IgG overnight at 4 °C, Protein A/G PLUS Agarose; Western blot with anti-PRMT5. (In general: In western blotting, separated proteins are transferred to a membrane and probed.)

Results are given in words; binding and its absence hold for the method and conditions named. Binding seen in cells or lysates may run through a third protein. Some results given as binding are weak or reduced against the parent protein; the word gives no strength.

Consider “KAP1 (KRAB-associated protein 1), endogenous (from UniProt Q13263 1-835)”, for which the binding result with 3xFlag-ZNF224 was “binds”.

Take “PRMT5, protein arginine methyltransferase (endogenous) (from UniProt O14744 1-637) (enzyme)”: in assay [1], the binding entry was “binds”.
